2 substances from paper PMC8998743, “Dimerization Activity of a Disordered N-Terminal Domain from Drosophila CLAMP Protein” (International Journal of Molecular Sciences, 2022) can be followed below.

No constants are given. Whether binding was seen depends on the method and setting. A result given as binding can be weak or reduced; the word gives no strength. Where a sequence is shown, tags or fusion partners need not be part of it.

The target in experiment [1] is T1, D. melanogaster MSL2 (GAL4 fusion for Y2H) (D. melanogaster) (UniProt P50534).
T1 sequence: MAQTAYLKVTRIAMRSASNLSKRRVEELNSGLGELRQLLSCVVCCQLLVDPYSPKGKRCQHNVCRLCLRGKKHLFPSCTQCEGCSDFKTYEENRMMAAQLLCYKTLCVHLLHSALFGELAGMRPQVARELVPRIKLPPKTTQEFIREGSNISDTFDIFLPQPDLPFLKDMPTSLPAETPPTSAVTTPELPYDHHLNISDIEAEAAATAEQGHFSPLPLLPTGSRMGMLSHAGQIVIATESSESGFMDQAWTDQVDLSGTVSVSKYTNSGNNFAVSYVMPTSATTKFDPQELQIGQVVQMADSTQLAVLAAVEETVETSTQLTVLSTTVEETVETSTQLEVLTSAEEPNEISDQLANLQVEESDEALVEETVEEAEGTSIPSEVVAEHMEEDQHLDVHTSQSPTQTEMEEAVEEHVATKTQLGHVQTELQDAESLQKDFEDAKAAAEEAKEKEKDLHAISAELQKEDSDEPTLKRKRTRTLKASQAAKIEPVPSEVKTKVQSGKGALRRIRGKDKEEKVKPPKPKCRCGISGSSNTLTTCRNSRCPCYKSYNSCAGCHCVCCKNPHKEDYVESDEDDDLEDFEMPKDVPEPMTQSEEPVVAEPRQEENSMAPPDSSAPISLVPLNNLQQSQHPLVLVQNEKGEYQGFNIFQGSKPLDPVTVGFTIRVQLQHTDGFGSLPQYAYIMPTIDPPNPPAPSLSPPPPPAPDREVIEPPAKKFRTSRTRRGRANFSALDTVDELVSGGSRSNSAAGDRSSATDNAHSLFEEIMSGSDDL
Briefly: two-hybrid; GAL4 DNA-binding domain (pGBT9) and activation domain (pGAD424) fusions in yeast strain pJ69-4A; growth on selective media without tryptophan, leucine, histidine, or adenine, compared after 2-3 days; 30 °C.

Experiment [2] deals with T2, CLAMP^1–153 (GAL4 fusion for Y2H) (D. melanogaster) (UniProt Q9V9N4).
T2 sequence: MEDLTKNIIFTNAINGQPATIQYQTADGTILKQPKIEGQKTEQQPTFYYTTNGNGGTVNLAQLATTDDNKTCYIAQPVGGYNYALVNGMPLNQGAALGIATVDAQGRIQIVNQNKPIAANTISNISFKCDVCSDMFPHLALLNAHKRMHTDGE
The description is as above.

Regarding “amCLAMP^1–204 (GAL4 fusion for Y2H) (Apis mellifera) (domain or fragment)”, the binding result in experiment [1] is on record as “binds”. As to “CLAMP N-terminal region with deletion of 68–94 (GAL4 fusion for Y2H) (D. melanogaster) (domain or fragment)”, in experiment [2], the binding result is listed as “binds”.
